The source of these data is PMC13043726, “SFPQ directs histone H3.3 deposition to R-loops in DNA repeats to protect genome stability”.

Amino acid sequences for entries named in this document (tags omitted).
UniProt Q9UER7: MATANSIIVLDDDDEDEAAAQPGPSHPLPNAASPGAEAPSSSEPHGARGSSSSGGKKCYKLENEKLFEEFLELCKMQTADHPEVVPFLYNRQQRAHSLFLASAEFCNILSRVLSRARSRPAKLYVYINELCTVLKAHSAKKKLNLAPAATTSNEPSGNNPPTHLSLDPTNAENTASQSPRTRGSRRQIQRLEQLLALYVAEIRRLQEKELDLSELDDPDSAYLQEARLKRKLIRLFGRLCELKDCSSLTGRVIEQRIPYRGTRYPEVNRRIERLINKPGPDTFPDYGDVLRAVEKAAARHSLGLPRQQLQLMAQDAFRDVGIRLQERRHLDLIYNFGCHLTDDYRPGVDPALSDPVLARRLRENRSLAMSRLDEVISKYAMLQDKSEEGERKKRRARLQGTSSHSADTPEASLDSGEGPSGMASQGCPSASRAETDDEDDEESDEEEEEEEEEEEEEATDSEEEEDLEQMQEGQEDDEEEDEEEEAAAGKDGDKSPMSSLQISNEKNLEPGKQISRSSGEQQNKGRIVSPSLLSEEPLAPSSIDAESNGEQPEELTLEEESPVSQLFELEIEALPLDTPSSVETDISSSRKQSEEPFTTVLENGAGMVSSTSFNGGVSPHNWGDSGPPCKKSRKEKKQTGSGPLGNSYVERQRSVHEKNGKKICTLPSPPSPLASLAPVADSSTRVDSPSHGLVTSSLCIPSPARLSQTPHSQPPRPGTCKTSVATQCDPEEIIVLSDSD

For the experiment, the target named is T1, myc-tagged human SFPQ, full length (human) (UniProt P23246).
T1 sequence: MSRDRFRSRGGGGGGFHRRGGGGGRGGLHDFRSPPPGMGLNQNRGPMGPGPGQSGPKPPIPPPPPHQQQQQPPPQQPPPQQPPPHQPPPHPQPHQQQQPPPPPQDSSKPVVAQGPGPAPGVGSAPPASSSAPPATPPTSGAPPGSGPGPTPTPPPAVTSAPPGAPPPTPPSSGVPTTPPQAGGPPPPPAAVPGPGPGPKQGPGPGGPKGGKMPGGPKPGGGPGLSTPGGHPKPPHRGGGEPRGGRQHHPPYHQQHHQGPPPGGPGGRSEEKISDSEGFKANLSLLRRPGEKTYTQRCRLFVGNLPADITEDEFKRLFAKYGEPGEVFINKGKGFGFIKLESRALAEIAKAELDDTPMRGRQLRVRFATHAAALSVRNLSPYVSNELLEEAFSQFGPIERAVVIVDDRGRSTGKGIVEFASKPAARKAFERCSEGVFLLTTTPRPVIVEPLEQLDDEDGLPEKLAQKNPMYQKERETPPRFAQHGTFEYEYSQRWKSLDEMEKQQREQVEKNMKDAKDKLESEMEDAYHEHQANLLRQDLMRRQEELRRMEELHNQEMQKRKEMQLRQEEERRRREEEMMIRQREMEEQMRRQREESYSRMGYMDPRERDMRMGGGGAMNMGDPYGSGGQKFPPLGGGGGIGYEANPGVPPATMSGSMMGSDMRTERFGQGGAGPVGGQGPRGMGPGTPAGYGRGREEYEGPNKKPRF
The experiment can be described thus: affinity purification with mass spectrometry; myc-SFPQ transiently overexpressed in H1299; anti-myc immunoprecipitation; SDS-PAGE, Coomassie-stained bands excised; MALDI-TOF; control myc-Bif-1.

No constants are given. Whether binding was seen depends on the method and setting. Binding seen in cells or lysates may run through a third protein. A yes stands for co-enrichment or nearness to the bait. Other partners may have been found. Where a sequence is shown, tags or fusion partners need not be part of it.

For “endogenous Death Domain-Associated Protein (DAXX) (from UniProt Q9UER7 1-740)”, the binding result was “binds”.
